The source of these data is paper PMC5432348.

What all share (test): affinity purification with mass spectrometry; 1% Brij97 lysates of Isreco1 and Is1-Co029 cells cultured on collagen I (also on tissue culture plastic); beads coupled to mAb Ts9 (CD9) or TS29.2 (Co-029); SDS-PAGE, in-gel trypsin digestion, LC-MS/MS
For experiment [1], the target named is T1, tetraspanin Co-029/tspan8 (UniProt P19075).
T1 sequence: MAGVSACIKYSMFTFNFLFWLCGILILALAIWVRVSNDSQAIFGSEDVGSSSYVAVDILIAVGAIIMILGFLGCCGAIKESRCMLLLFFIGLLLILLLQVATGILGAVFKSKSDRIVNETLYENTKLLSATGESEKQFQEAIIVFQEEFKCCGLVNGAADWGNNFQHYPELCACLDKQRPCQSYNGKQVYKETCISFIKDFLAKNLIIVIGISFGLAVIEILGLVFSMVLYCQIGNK

Experiment [2] deals with CD9 (human (endogenous in Isreco1)) (UniProt P21926).
Experiment [3] deals with T2, CD9 (human (endogenous in Isreco1)), P21926.
T2 chain: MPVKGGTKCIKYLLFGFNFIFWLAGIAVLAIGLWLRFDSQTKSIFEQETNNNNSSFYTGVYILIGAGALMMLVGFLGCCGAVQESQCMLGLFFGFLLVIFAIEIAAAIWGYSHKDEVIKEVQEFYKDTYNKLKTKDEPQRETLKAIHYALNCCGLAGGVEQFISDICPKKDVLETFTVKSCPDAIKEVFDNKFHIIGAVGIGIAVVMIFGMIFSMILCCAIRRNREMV
To be noted: remark: other sources report otherwise.

The target of experiment [4] is T3, tetraspanin Co-029/tspan8, P19075.
T3 chain: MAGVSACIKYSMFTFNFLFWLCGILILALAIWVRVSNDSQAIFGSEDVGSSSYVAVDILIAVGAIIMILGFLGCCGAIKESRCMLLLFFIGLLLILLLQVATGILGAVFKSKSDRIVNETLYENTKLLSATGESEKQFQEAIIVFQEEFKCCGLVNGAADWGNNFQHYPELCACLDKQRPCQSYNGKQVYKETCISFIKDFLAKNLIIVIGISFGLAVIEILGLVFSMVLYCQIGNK
To be noted: remark: other sources report otherwise.

Results are given in words; binding and its absence hold for the method and conditions named. In cells and extracts the contact can be indirect. Here binding means that the protein was enriched with, or labelled near, the bait; the list need not be complete.

B1: ITFG3 (protein, UniProt Q9H0X4 1-552)
chain: MLDHKDLEAEIHPLKNEERKSQENLGNPSKNEDNVKSAPPQSRLSRCRAAAFFLSLFLCLFVVFVVSFVIPCPDRPASQRMWRIDYSAAVIYDFLAVDDINGDRIQDVLFLYKNTNSSNNFSRSCVDEGFSSPCTFAAAVSGANGSTLWERPVAQDVALVECAVPQPRGSEAPSACILVGRPSSFIAVNLFTGETLWNHSSSFSGNASILSPLLQVPDVDGDGAPDLLVLTQEREEVSGHLYSGSTGHQIGLRGSLGVDGESGFLLHVTRTGAHYILFPCASSLCGCSVKGLYEKVTGSGGPFKSDPHWESMLNATTRRMLSHSSGAVRYLMHVPGNAGADVLLVGSEAFVLLDGQELTPRWTPKAAHVLRKPIFGRYKPDTLAVAVENGTGTDRQILFLDLGTGAVLCSLALPSLPGGPLSASLPTADHRSAFFFWGLHELGSTSETETGEARHSLYMFHPTLPRVLLELANVSTHIVAFDAVLFEPSRHAAYILLTGPADSEAPGLVSVIKHKVRDLVPSSRVVRLGEGGPDSDQAIRDRFSRLRYQSEA
For B1, the binding result in experiment [1] and in experiment [2] was “binds” throughout.

B2: STX3 (protein, UniProt Q13277 1-289)
chain: MKDRLEQLKAKQLTQDDDTDAVEIAIDNTAFMDEFFSEIEETRLNIDKISEHVEEAKKLYSIILSAPIPEPKTKDDLEQLTTEIKKRANNVRNKLKSMEKHIEEDEVRSSADLRIRKSQHSVLSRKFVEVMTKYNEAQVDFRERSKGRIQRQLEITGKKTTDEELEEMLESGNPAIFTSGIIDSQISKQALSEIEGRHKDIVRLESSIKELHDMFMDIAMLVENQGEMLDNIELNVMHTVDHVEKARDETKKAVKYQSQARKKLIIIIVLVVVLLGILALIIGLSVGLN
For B2, the binding result in experiment [1] and in experiment [2] was “binds” each time.

B3: ADAM10, O14672 214-748 (protein)
chain: TTSAEKNTCQLYIQTDHLFFKYYGTREAVIAQISSHVKAIDTIYQTTDFSGIRNISFMVKRIRINTTADEKDPTNPFRFPNIGVEKFLELNSEQNHDDYCLAYVFTDRDFDDGVLGLAWVGAPSGSSGGICEKSKLYSDGKKKSLNTGIITVQNYGSHVPPKVSHITFAHEVGHNFGSPHDSGTECTPGESKNLGQKENGNYIMYARATSGDKLNNNKFSLCSIRNISQVLEKKRNNCFVESGQPICGNGMVEQGEECDCGYSDQCKDECCFDANQPEGRKCKLKPGKQCSPSQGPCCTAQCAFKSKSEKCRDDSDCAREGICNGFTALCPASDPKPNFTDCNRHTQVCINGQCAGSICEKYGLEECTCASSDGKDDKELCHVCCMKKMDPSTCASTGSVQWSRHFSGRTITLQPGSPCNDFRGYCDVFMRCRLVDADGPLARLKKAIFSPELYENIAEWIVAHWWAVLLMGIALIMLMAGFIKICSVHTPSSNPKLPPPKPLPGTLKRRRPPQPIQQPQRQRPRESYQMGHMRR
For the molecule B3, the binding entry in experiment [3] is recorded as “binds”.

B4: STX7 (protein, UniProt O15400 1-261)
chain: MSYTPGVGGDPAQLAQRISSNIQKITQCSVEIQRTLNQLGTPQDSPELRQQLQQKQQYTNQLAKETDKYIKEFGSLPTTPSEQRQRKIQKDRLVAEFTTSLTNFQKVQRQAAEREKEFVARVRASSRVSGSFPEDSSKERNLVSWESQTQPQVQVQDEEITEDDLRLIHERESSIRQLEADIMDINEIFKDLGMMIHEQGDVIDSIEANVENAEVHVQQANQQLSRAADYQRKSRKTLCIIILILVIGVAIISLIIWGLNH
In the case of B4, the binding result in experiment [1] and in experiment [2] was “binds” in each case.

B5: TSPAN5 (protein, UniProt P62079 1-268)
chain: MSGKHYKGPEVSCCIKYFIFGFNVIFWFLGITFLGIGLWAWNEKGVLSNISSITDLGGFDPVWLFLVVGGVMFILGFAGCIGALRENTFLLKFFSVFLGIIFFLELTAGVLAFVFKDWIKDQLYFFINNNIRAYRDDIDLQNLIDFTQEYWQCCGAFGADDWNLNIYFNCTDSNASRERCGVPFSCCTKDPAEDVINTQCGYDARQKPEVDQQIVIYTKGCVPQFEKWLQDNLTIVAGIFIGIALLQIFGICLAQNLVSDIEAVRASW
Take B5: the binding entry in experiment [1] and in experiment [2] was “binds” throughout.

B6: GPC1 (protein, UniProt P35052 24-530)
chain: DPASKSRSCGEVRQIYGAKGFSLSDVPQAEISGEHLRICPQGYTCCTSEMEENLANRSHAELETALRDSSRVLQAMLATQLRSFDDHFQHLLNDSERTLQATFPGAFGELYTQNARAFRDLYSELRLYYRGANLHLEETLAEFWARLLERLFKQLHPQLLLPDDYLDCLGKQAEALRPFGEAPRELRLRATRAFVAARSFVQGLGVASDVVRKVAQVPLGPECSRAVMKLVYCAHCLGVPGARPCPDYCRNVLKGCLANQADLDAEWRNLLDSMVLITDKFWGTSGVESVIGSVHTWLAEAINALQDNRDTLTAKVIQGCGNPKVNPQGPGPEEKRRRGKLAPRERPPSGTLEKLVSEAKAQLRDVQDFWISLPGTLCSEKMALSTASDDRCWNGMARGRYLPEVMGDGLANQINNPEVEVDITKPDMTIRQQIMQLKIMTNRLRSAYNGNDVDFQDASDDGSGSGSGDGCLDDLCSRKVSRKSSSSRTPLTHALPGLSEQEGQKTS
On to B6, for which the binding entry in experiment [1] and in experiment [2] was “binds” each time.

B7: STX4, Q12846 1-297 (protein)
chain: MRDRTHELRQGDDSSDEEDKERVALVVHPGTARLGSPDEEFFHKVRTIRQTIVKLGNKVQELEKQQVTILATPLPEESMKQELQNLRDEIKQLGREIRLQLKAIEPQKEEADENYNSVNTRMRKTQHGVLSQQFVELINKCNSMQSEYREKNVERIRRQLKITNAGMVSDEELEQMLDSGQSEVFVSNILKDTQVTRQALNEISARHSEIQQLERSIRELHDIFTFLATEVEMQGEMINRIEKNILSSADYVERGQEHVKTALENQKKARKKKVLIAICVSITVVLLAVIIGVTVVG
Take B7: the binding entry in experiment [4] is “binds”.

B8: TSPAN14 (protein, UniProt Q8NG11 1-270)
chain: MHYYRYSNAKVSCWYKYLLFSYNIIFWLAGVVFLGVGLWAWSEKGVLSDLTKVTRMHGIDPVVLVLMVGVVMFTLGFAGCVGALRENICLLNFFCGTIVLIFFLELAVAVLAFLFQDWVRDRFREFFESNIKSYRDDIDLQNLIDSLQKANQCCGAYGPEDWDLNVYFNCSGASYSREKCGVPFSCCVPDPAQKVVNTQCGYDVRIQLKSKWDESIFTKGCIQALESWLPRNIYIVAGVFIAISLLQIFGIFLARTLISDIEAVKAGHHF
Regarding B8, the binding result in experiment [1] and in experiment [2] was “binds” throughout.

B9: EVA1A (protein, UniProt Q9H8M9 1-152)
chain: MRLPLSHSPEHVEMALLSNILAAYSFVSENPERAALYFVSGVCIGLVLTLAALVIRISCHTDCRRRPGKKFLQDRESSSDSSDSEDGSEDTVSDLSVRRHRRFERTLNKNVFTSAEELERAQRLEERERIIREIWMNGQPEVPGTRSLNRYY
In the case of B9, the binding result in experiment [1] and in experiment [2] was “binds” in each case.

B10: NT5E (protein, UniProt P21589 27-549)
chain: WELTILHTNDVHSRLEQTSEDSSKCVNASRCMGGVARLFTKVQQIRRAEPNVLLLDAGDQYQGTIWFTVYKGAEVAHFMNALRYDAMALGNHEFDNGVEGLIEPLLKEAKFPILSANIKAKGPLASQISGLYLPYKVLPVGDEVVGIVGYTSKETPFLSNPGTNLVFEDEITALQPEVDKLKTLNVNKIIALGHSGFEMDKLIAQKVRGVDVVVGGHSNTFLYTGNPPSKEVPAGKYPFIVTSDDGRKVPVVQAYAFGKYLGYLKIEFDERGNVISSHGNPILLNSSIPEDPSIKADINKWRIKLDNYSTQELGKTIVYLDGSSQSCRFRECNMGNLICDAMINNNLRHTDEMFWNHVSMCILNGGGIRSPIDERNNGTITWENLAAVLPFGGTFDLVQLKGSTLKKAFEHSVHRYGQSTGEFLQVGGIHVVYDLSRKPGDRVVKLDVLCTKCRVPSYDPLKMDEVYKVILPNFLANGGDGFQMIKDELLRHDSGDQDINVVSTYISKMKVIYPAVEGRIKFS
Consider B10, for which the binding entry in experiment [1] and in experiment [2] was “binds” throughout.
